Data: patent US20250290065A1, “METHODS FOR MODULATING HUMAN L1 RETROTRANSPOSONS RNA AND COMPOSITIONS FOR USE THEREIN” (King Abdullah University of Science and Technology, priority 2019, published 2025)
At least one structure is not confirmed: it was looked up by name or label, or the drawing left a doubt.

Experiments:
[1] = system: Line 1 retrotransposition; conditions: Nishikawa et al. 2018; Banuelos-Sanchez et al. 2019; cited from earlier work
[2] = system: L1 DNA copy number (L1 5′UTR-ORF1, L1 ORF2); assay: TaqMan qPCR-based L1 CNV assay in differentiating osteoblasts; type: cell-based, human; conditions: treated every day for three weeks; three time points; vs DMSO
[3] = system: MSC differentiating into adipocytes; assay: Adipogenic genes expression in differentiating adipocytes; type: cell-based, human; conditions: five different donors; 3TC vs DMSO
[4] = system: MSC differentiating into adipocytes; assay: Lipid content assay (AdipoRed) in differentiating adipocytes; type: cell-based, human; conditions: 3TC vs DMSO
L1 promoter = conditions: Terasaki, et al., PLoS One 2013; cited from earlier work

SMILES	Line 1 retrotransposition [1]	L1 DNA expansion during osteoblasts maturation [2]	adipogenic marker genes expression [3]	accumulation of intracellular lipid [4]	L1 promoter activity (L1 promoter)
Nc1ccn([C@@H]2CS[C@H](CO)O2)c(=O)n1 [Lamivudine 3TC, Lamivudine]	inhibit Line 1 retrotansposition	efficiently prevented L1 DNA expansion	did not significantly affect	unaltered	–
CC(C)(Oc1ccc(CCNC(=O)c2ccc(Cl)cc2)cc1)C(=O)O [bezafibrate]	–	–	–	–	induce L1 promoter activity
CC(C)OC(=O)C(C)(C)Oc1ccc(C(=O)c2ccc(Cl)cc2)cc1 [fenofibrate]	–	–	–	–	induce L1 promoter activity
